Results from article PMC12691677.
Results are given in words; binding and its absence hold for the method and conditions named. Some binding calls cover weakened binding; strength is not graded here. Where a sequence is shown, tags or fusion partners need not be part of it. One block for each binder: values may come before it.

Tests used:
[1] = target: T1, NifH (bacterial two-hybrid fusion) (K. oxytoca) (UniProt P00458); experiment: two-hybrid; bacterial two-hybrid (BTH), fusions to the T18 and T25 fragments of B. pertussis adenylate cyclase (pUT18C, pKT25) in E. coli BTH101; preculture in LB with 200 uM IPTG for 48 h, spotted on LB with X-gal, 30°C, 12 h; blue colour
T1 sequence: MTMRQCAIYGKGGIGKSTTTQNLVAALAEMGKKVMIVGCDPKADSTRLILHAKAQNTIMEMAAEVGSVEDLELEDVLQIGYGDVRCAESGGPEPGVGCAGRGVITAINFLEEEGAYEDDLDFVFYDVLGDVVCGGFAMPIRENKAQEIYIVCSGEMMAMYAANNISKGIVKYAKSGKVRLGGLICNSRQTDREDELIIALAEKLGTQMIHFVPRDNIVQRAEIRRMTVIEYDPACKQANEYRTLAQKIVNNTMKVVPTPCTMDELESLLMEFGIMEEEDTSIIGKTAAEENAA

[2] = target: NifM (His-tagged, purified) (K. oxytoca) (UniProt P0A3Z0); experiment: SEC; Superdex 200; His-tagged NifM after Ni-NTA (PBS with imidazole), concentrated to 0.5 mL; molecular weight from the elution volume against marker proteins; both purified

binding [1]: binds
B1: NifM (bacterial two-hybrid fusion) (protein, UniProt P0A3Z0 1-266)
chain: MNPWQRFARQRLARSRWNRDPAALDPADTPAFEQAWQRQCHMEQTIVARVPEGDIPAALLENIAASLAIWLDEGDFAPPERAAIVRHHARLELAFADIARQAPQPDLSTVQAWYLRHQTQFMRPEQRLTRHLLLTVDNDREAVHQRILGLYRQINASRDAFAPLAQRHSHCPSALEEGRLGWISRGLLYPQLETALFSLAENALSLPIASELGWHLLWCEAIRPAAPMEPQQALESARDYLWQQSQQRHQRQWLEQMISRQPGLCG

binding [2]: no binding
B2: NifM (His-tagged, purified) (protein, UniProt P0A3Z0 1-266)
chain: B1 chain
